PubChem BioAssay AID720505, Drosophila RNAi Screening Center – 2013

- Purpose: 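Fly regulators or components of the CRAC channel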 (primary screen)
- Cells: Drosophila S2R+ cells
- Knock-down reagent: long dsRNA against Drosophila genes
- Conditions: thapsigargin (2 µM) in calcium-free buffer to empty internal stores, then 2 mM calcium added back
- Detection: 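Fluo-4 signal in 384-well plates read on a FLIPR after thapsigargin (2 µM, calcium-free) store depletion and 2 mM calcium add-back; unnormalised mean endpoint per well; screen run twice, selected wells retested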
- Reading the numbers: calcium signal and retest calcium signal: higher = more calcium entry after store depletion
- Rule for the call: 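Knock-downs counted as hits when calcium entry dropped relative to STIM1 positive and Rho1 negative controls present on each plate; roughly 1500 genes called, with reductions of differing size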
- Calls: active = called as lowering calcium entry; inactive = not called
In all, the deposit lists about 20,000 reagents; below is an unselected part of those with a known target gene and a result. In the full data, about 2,100 (10%) were called active. 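Raw plate signals without normalisation; calls rest on control-based scores that were not deposited; replicate 2 separates called from uncalled poorly.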 Unmarked entries are inactive. The numbers tell different reagents against one gene apart. A plus sign joins genes that one reagent is predicted to hit. The record does not give: the amount of reagent, the time to read-out.

CG12576 → calcium signal, replicate 1: 118; calcium signal, replicate 2: 103
CG8191 → calcium signal, replicate 1: 117; calcium signal, replicate 2: 143
CG40245 (retired record) → calcium signal, replicate 1: 95.1; calcium signal, replicate 2: 8744
CG14402 → calcium signal, replicate 1: 163; calcium signal, replicate 2: 121
CG4866 → calcium signal, replicate 1: 159; calcium signal, replicate 2: 128
CG7252 #1 → calcium signal, replicate 1: 119; calcium signal, replicate 2: 71.2
CG7252 #2 → calcium signal, replicate 1: 171; calcium signal, replicate 2: 121
CG9760 → calcium signal, replicate 1: 48.9 (active); calcium signal, replicate 2: 72.5
Trs23 → calcium signal, replicate 1: 213; calcium signal, replicate 2: 141
wupA #1 → calcium signal, replicate 1: 89; calcium signal, replicate 2: 141; retest calcium signal, replicate 1: 8039; retest calcium signal, replicate 2: 147
wupA #2 → calcium signal, replicate 1: 91.6; calcium signal, replicate 2: 135
CG17834 → calcium signal, replicate 1: 54 (active); calcium signal, replicate 2: 78.2
BtbVII #1 → calcium signal, replicate 1: 51.9; calcium signal, replicate 2: 101
BtbVII #2 → calcium signal, replicate 1: 68.8 (active); calcium signal, replicate 2: 127
Upf3 → calcium signal, replicate 1: 88.4; calcium signal, replicate 2: 101
CG14785 → calcium signal, replicate 1: 69.5; calcium signal, replicate 2: 93.5
CG1722 → calcium signal, replicate 1: 228; calcium signal, replicate 2: 85.8
mam #1 → calcium signal, replicate 1: 84.1; calcium signal, replicate 2: 106
mam #2 → calcium signal, replicate 1: 105; calcium signal, replicate 2: 175
mam #3 → calcium signal, replicate 1: 87.7; calcium signal, replicate 2: 66.1
CG42512 + CG32573 #1 → calcium signal, replicate 1: 111; calcium signal, replicate 2: 121
CG42512 + CG32573 #2 → calcium signal, replicate 1: 105; calcium signal, replicate 2: 85.1
CG42512 + CG32573 #3 → calcium signal, replicate 1: 142; calcium signal, replicate 2: 153
Jon65Ai → calcium signal, replicate 1: 71.2; calcium signal, replicate 2: 48.9
CG12278 → calcium signal, replicate 1: 140; calcium signal, replicate 2: 133
Cyp4aa1 → calcium signal, replicate 1: 101; calcium signal, replicate 2: 94
CG34375 #1 → calcium signal, replicate 1: 233; calcium signal, replicate 2: 172
CG34375 #2 → calcium signal, replicate 1: 240; calcium signal, replicate 2: 166
